The other results are listed elsewhere or left out.
target: OsWRKY34 (Oryza sativa, UniProt Q0JBA9 1-250); test: protein-binding microarray (RPBM); PBS, 2% BSA, 51.3 ng/ul salmon testes DNA, 50 uM zinc acetate, 200 nM TF, 25 C, 1 h; high values mean tight binding; settings: protein: recombinant; tags: N-terminal polyhistidine and DsRed monomer fusion (pET32a); label: CyDye5-dUTP incorporated in the synthesized complementary strand; 3' TTTTT single-stranded linker to array surface; dsDNA, one strand shown
Method in brief: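 Polyhistidine-tagged DsRed fusions of transcription factors, joined at the N-terminus, were expressed in E. coli BL21-CodonPlus and isolated on Ni–NTA. They were incubated at 200 nM for 1 h at 25 °C on a custom Agilent array, double-stranded and BSA-blocked, in PBS with 2% BSA, salmon testes DNA and 50 µM zinc acetate. The binding signal is per-feature fluorescence intensity (arbitrary units) read on an Axon 4000B scanner after washing.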

By UniProt entry, the sequences of proteins in these tests, tags left out.
UniProt Q0JBA9, entry or part of it: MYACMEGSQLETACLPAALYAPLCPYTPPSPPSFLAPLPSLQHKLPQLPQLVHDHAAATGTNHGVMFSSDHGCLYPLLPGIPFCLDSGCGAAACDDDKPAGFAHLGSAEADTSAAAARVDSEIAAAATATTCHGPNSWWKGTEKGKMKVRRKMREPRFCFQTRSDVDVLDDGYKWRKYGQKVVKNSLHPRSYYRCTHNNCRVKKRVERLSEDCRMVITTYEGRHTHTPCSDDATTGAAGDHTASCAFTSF

Row | Sequence | binding signal
1 | AAAGTACACACAAGTCCTTCACTCATTAGTTTCCATTTCTCGGAGTCACCTAGTGCAG | 8090 fluorescence intensity (a.u.)
2 | CACTGTAGTTATGTGGTGCACTGGTCGGTTCCGCTGACCACGGAGTCACCTAGTGCAG | 10400 fluorescence intensity (a.u.)
3 | CAGGCCAGCTTCATATGCCTCCATCAAAATCGATTTATTTCGGAGTCACCTAGTGCAG | 8630 fluorescence intensity (a.u.)
4 | TTTGCTTTGTTTTTACTCTCTGATGATCTGATCGGTAGAACGGAGTCACCTAGTGCAG | 8080 fluorescence intensity (a.u.)
5 | CGCCGCATGCATCCTGTTCTATTCCTCGTGTGGGCCTTTACGGAGTCACCTAGTGCAG | 9570 fluorescence intensity (a.u.)
6 | CAGTTTTACATGTGGCTAATCATCCAAAGCTATAGTACTCCGGAGTCACCTAGTGCAG | 9220 fluorescence intensity (a.u.)
7 | GTGACCATGACTTCTATGATTCTCTTCCAAGCTCTTTCACCGGAGTCACCTAGTGCAG | 10200 fluorescence intensity (a.u.)
8 | TTCATTGGTCTGTTTGGTTCAAGTCCTGAGAAGGTGCTGGCGGAGTCACCTAGTGCAG | 8730 fluorescence intensity (a.u.)
9 | TGCTGTTTTGACCTCGTGGGGATTTTTATTTTCTTTTTCACGGAGTCACCTAGTGCAG | 8020 fluorescence intensity (a.u.)
10 | CTTTTGGCATCCTTGATTCAATTTCCCTTCCCTTTCTTTCCGGAGTCACCTAGTGCAG | 10800 fluorescence intensity (a.u.)
11 | TCTCATTTTCTCTATGTCATCAGTCTCCAAATTCTTTCAACGGAGTCACCTAGTGCAG | 11300 fluorescence intensity (a.u.)
12 | CCTACTCCTGCTGCTACCGCGCTCGCCGGCGACCTCCTCCCGGAGTCACCTAGTGCAG | 8440 fluorescence intensity (a.u.)
13 | CGTAGAAGATGTTGCTGTTGCCGCCGTTGACGAACTTGGTCGGAGTCACCTAGTGCAG | 8810 fluorescence intensity (a.u.)
14 | GGATGTGTATGTATTTATAGGGGTAAGTGAGAAGACTCATCGGAGTCACCTAGTGCAG | 10300 fluorescence intensity (a.u.)
15 | ACCTTCGTTTTGTAATATACGAGACATTTGACTTTCTTTTCGGAGTCACCTAGTGCAG | 10000 fluorescence intensity (a.u.)
16 | ATGGCATGGTCGATCCCCACTATGTAAGTGTATATATATACGGAGTCACCTAGTGCAG | 8870 fluorescence intensity (a.u.)
17 | CCTCTCTCTCTCTCTTCGCCCGCGACTCCATCCCCTCCCTCGGAGTCACCTAGTGCAG | 8360 fluorescence intensity (a.u.)
18 | AGATAATTACTCACTTACCATCAATATTTTCTAGAATTTTCGGAGTCACCTAGTGCAG | 9230 fluorescence intensity (a.u.)
19 | ACTCCGCTTTCACATAACCCTACTCCCTCCGTCCTCATAACGGAGTCACCTAGTGCAG | 8240 fluorescence intensity (a.u.)
20 | TTCCAAGTTGTATTGAGAAGTACCGTTGTTTGATTCTAGTCGGAGTCACCTAGTGCAG | 9870 fluorescence intensity (a.u.)
21 | AGACGAACAGTCAAATATGTGCTAAAAAGTCAACGGTGTCCGGAGTCACCTAGTGCAG | 17500 fluorescence intensity (a.u.)
22 | GCACCGACCGCCTCCGCGACCTCCACGCCTTCGACGACACCGGAGTCACCTAGTGCAG | 10300 fluorescence intensity (a.u.)
23 | ACGCGGGGATGGATGATGGTGGTGGCGGCGAGGGGATGATCGGAGTCACCTAGTGCAG | 9170 fluorescence intensity (a.u.)
24 | ATCGAGCCCTTCCCCACCACATCTCTCGCCGCACCGCATCCGGAGTCACCTAGTGCAG | 8500 fluorescence intensity (a.u.)
25 | ACAGTCATGTGTATGGTCTAGTGTTGTCGTAATTAAAACCCGGAGTCACCTAGTGCAG | 8650 fluorescence intensity (a.u.)
26 | ATCATGCGCCCCTCGATGCAACCTTGAAAAGCCATCTCAACGGAGTCACCTAGTGCAG | 8220 fluorescence intensity (a.u.)
27 | AACCTTTTTTAAACATGTTTGACCCGTTCGTCTTATTTAACGGAGTCACCTAGTGCAG | 9330 fluorescence intensity (a.u.)

Reprinted at random: four entries already listed, in no set order.
Row | Sequence | binding signal
4 | TTTGCTTTGTTTTTACTCTCTGATGATCTGATCGGTAGAACGGAGTCACCTAGTGCAG | 8080 fluorescence intensity (a.u.)
18 | AGATAATTACTCACTTACCATCAATATTTTCTAGAATTTTCGGAGTCACCTAGTGCAG | 9230 fluorescence intensity (a.u.)
27 | AACCTTTTTTAAACATGTTTGACCCGTTCGTCTTATTTAACGGAGTCACCTAGTGCAG | 9330 fluorescence intensity (a.u.)
11 | TCTCATTTTCTCTATGTCATCAGTCTCCAAATTCTTTCAACGGAGTCACCTAGTGCAG | 11300 fluorescence intensity (a.u.)

Following part

Row | Sequence | binding signal
28 | ATACACACACTGTCACACTGTCTCTGCATTACTCACAGTCCGGAGTCACCTAGTGCAG | 11900 fluorescence intensity (a.u.)
29 | ACCCTCGTCGCCGCCAACCACCATCCAACCCATCCACCAACGGAGTCACCTAGTGCAG | 10800 fluorescence intensity (a.u.)
30 | CGTGCCGCCGCCGCCGCCGCCATCCTCCGGCAACAACGGCCGGAGTCACCTAGTGCAG | 9650 fluorescence intensity (a.u.)
31 | CATTGTTACACTTTTCTGTTTGTTTGTTAATGTGGATCAACGGAGTCACCTAGTGCAG | 10300 fluorescence intensity (a.u.)
32 | TATTGGGTCTACTCCTTACCTGCTACAGTTAGTTTGTCTTCGGAGTCACCTAGTGCAG | 12600 fluorescence intensity (a.u.)
33 | CAAGCCCTGCAGGCTGCAGATTCTGTTTTCCACTTGGCGCCGGAGTCACCTAGTGCAG | 8190 fluorescence intensity (a.u.)
34 | TTGTTTGCACCGGTTTTGACAGTTCAGGGATCGGTTGTATCGGAGTCACCTAGTGCAG | 8200 fluorescence intensity (a.u.)
35 | CAAGTTTGACGCGCACCGGCACCGCCCCTGTACCGAAATTCGGAGTCACCTAGTGCAG | 8030 fluorescence intensity (a.u.)
36 | TGTAGTATATTAGTATCTTCTTTGTGCTGTGTTGTTTCTCCGGAGTCACCTAGTGCAG | 9510 fluorescence intensity (a.u.)
37 | ACCGTGTAATTTCCTCATTTGCCTTTCAGTTTTTCCCTTTCGGAGTCACCTAGTGCAG | 9060 fluorescence intensity (a.u.)
38 | TGACTCAGTTTGTGATATTCTCACCAACAGCCTACTCAGTCGGAGTCACCTAGTGCAG | 8050 fluorescence intensity (a.u.)
39 | GAACGCCGTTCTGTGGTCTCACATTGGTCATTGGCCGTTCCGGAGTCACCTAGTGCAG | 8900 fluorescence intensity (a.u.)
40 | TGTACTTCAATACATATCTTCAGTTTTGTTCTTTGTGATACGGAGTCACCTAGTGCAG | 9970 fluorescence intensity (a.u.)
41 | ATGTCCCTAATTACTGCGTTTTCCATTTTGCTGTTTTTTACGGAGTCACCTAGTGCAG | 16500 fluorescence intensity (a.u.)
42 | TCTGGTTATTGCACACGAAGTTACGTTTTTGCCCTTCTACCGGAGTCACCTAGTGCAG | 8090 fluorescence intensity (a.u.)
43 | TTAGCATAATTGGTTGGTTGGGTACTTTGGGTGTAATCATCGGAGTCACCTAGTGCAG | 13800 fluorescence intensity (a.u.)
44 | TGAACTAACGCCATCAGATGAGTCATCCGTCAACCAGTATCGGAGTCACCTAGTGCAG | 8220 fluorescence intensity (a.u.)
45 | ATCCATAATTAACCTATGTGATGCTACAGTAAATATTTGTCGGAGTCACCTAGTGCAG | 8040 fluorescence intensity (a.u.)
46 | TTATTAATCCACGTGTCTCTCCATCGTACATGTTGACCACCGGAGTCACCTAGTGCAG | 9700 fluorescence intensity (a.u.)
47 | GTGCTGTTTGTGATGTTTGTCTGTATGTGCTCCGTCTGTTCGGAGTCACCTAGTGCAG | 11600 fluorescence intensity (a.u.)
48 | ACTCTTTTTTTCTTTTTTTTTCTCATTAATATGAGAATTTCGGAGTCACCTAGTGCAG | 8660 fluorescence intensity (a.u.)
49 | CAGGTGCTACCTCCGCCGCGTCGCACTCGCGCTGCCGTCCCGGAGTCACCTAGTGCAG | 8780 fluorescence intensity (a.u.)
50 | TTTCGATTGATTTTGCCTCCTGAAGCGTTGTCTAGCTTTTCGGAGTCACCTAGTGCAG | 8180 fluorescence intensity (a.u.)
51 | TGACTTCTTCCTTCTAATGCTCTCTCTTCTTCAACCTCTGCGGAGTCACCTAGTGCAG | 8080 fluorescence intensity (a.u.)
52 | CGTGTGGTACCTGGCTAGAAACGCGTCCACCCCGTCCACGCGGAGTCACCTAGTGCAG | 8040 fluorescence intensity (a.u.)
53 | AGCCGCACTCCTCGAGTCCACCACTCCGCCGCGCACCACTCGGAGTCACCTAGTGCAG | 8200 fluorescence intensity (a.u.)
54 | GGGTATTCCTTTGTGCGTGTATATAGTCCTTAGTTAATTTCGGAGTCACCTAGTGCAG | 15400 fluorescence intensity (a.u.)
